{"sequences": {"note": "Chains of the proteins cited; added tags and fusions are not shown. Lines headed by an entry give the natural chain unless they say otherwise; changes in a name come on top.", "UniProt Q9UNA4": "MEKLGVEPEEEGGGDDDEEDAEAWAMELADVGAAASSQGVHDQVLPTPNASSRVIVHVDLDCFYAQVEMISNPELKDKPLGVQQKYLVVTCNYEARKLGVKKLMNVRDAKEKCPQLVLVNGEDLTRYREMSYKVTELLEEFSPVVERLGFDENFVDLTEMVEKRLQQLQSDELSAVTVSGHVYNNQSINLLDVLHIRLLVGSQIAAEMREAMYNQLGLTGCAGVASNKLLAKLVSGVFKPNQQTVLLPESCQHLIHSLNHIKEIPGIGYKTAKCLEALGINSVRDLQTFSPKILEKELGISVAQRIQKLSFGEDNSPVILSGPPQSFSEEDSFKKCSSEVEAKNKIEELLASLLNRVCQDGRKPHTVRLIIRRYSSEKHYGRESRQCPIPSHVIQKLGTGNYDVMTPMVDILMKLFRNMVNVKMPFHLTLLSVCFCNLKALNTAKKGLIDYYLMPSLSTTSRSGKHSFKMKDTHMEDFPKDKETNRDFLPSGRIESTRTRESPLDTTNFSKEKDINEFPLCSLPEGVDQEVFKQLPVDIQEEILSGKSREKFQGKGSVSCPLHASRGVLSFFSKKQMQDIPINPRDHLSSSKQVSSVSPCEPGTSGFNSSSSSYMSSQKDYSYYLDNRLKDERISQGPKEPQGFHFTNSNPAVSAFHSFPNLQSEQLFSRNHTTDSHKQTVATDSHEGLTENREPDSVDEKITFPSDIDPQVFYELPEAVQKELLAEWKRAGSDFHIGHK"}, "source": "PubChem BioAssay AID588590", "about": "(National Center for Advancing Translational Sciences (NCATS), 2011)", "note": "Among all 390,000 compounds or so, about 4,000 (1%) were called active. Inconclusive results, whose numbers are uncertain, are shown with a selection of clear calls. Calls follow the shape of the dose curve; as a rule, active = well fitted inhibition curve with a large enough effect; inconclusive = small, poorly fitted or top-dose-only effect, or another doubt; inactive = no such curve, though single readings can be large or run the other way. Where the call is inconclusive, the potency comes from a doubtful curve fit. Potency is read from the fitted curve at half-maximal effect.", "data": [{"target": "DNA polymerase iota (Homo sapiens) (UniProt Q9UNA4)", "test": "qHTS for Inhibitors of Polymerase Iota", "settings": "Pol iota fluorescent replication assay, 10 min; series mostly up to 115 µM", "outline": "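Fluorescent replication assay read twice, at 0 min and 10 min after adding 50 nM (final) substrate. Enzyme (10 nM) and compounds were first incubated 15 min at room temperature; enzyme-free buffer wells were negative controls.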", "values": [{"smiles": "CCOC(=O)[C@H]1[C@H]2COc3cc(OC)ccc3[C@@H]2N2C(=O)N(c3cccc(F)c3)C(=O)[C@@]12C", "Potency": "inconclusive: 89.1 µM [inhibitor, single point]"}, {"smiles": "Cc1ccc(S(=O)(=O)CCC(=O)OCC(=O)N2c3ccccc3NC(=O)C2(C)C)cc1", "Potency": "inconclusive: 56.2 µM [inhibitor, partial curve, poor fit]"}, {"smiles": "Cc1cc(C(=O)O)ccc1-c1ccc(/C=C2\\NC(=O)N(Cc3ccc(F)cc3)C2=O)o1", "Potency": "inconclusive: 22.4 µM [inhibitor, full curve, poor fit]"}, {"smiles": "CCOC(=O)c1c(C)n(C)c2ccc(OCC(O)CN(CC)CC)cc12", "note": "(centres undefined)", "Potency": "inconclusive: 2.51 µM [inhibitor, partial curve, poor fit]"}, {"smiles": "Cc1cccc(CSC2=NCCN2S(=O)(=O)c2ccc(F)cc2)c1", "Potency": "inconclusive: 100 µM [inhibitor, partial curve, poor fit]"}, {"smiles": "COc1ccc(C(=O)c2oc3ccccc3c2NC(C)=O)cc1", "Potency": "inconclusive: 79.4 µM [inhibitor, single point]"}, {"smiles": "CCC(=O)NC(=S)NNC(=O)c1ccc(O)cc1", "Potency": "inconclusive: 63.1 µM [inhibitor, single point]"}, {"smiles": "COc1ccc(CNC(=O)C2CCN(c3nnc(-n4cccc4CNc4ccc(C)cc4)s3)CC2)c(OC)c1", "Potency": "inactive"}, {"smiles": "Cc1no[n+]([O-])c1COc1ccc(/C=C2\\NC(=S)NC2=O)cc1", "Potency": "inconclusive: 14.1 µM [inhibitor, full curve, poor fit]"}, {"smiles": "CCn1c(SCC(=O)Nc2ccccc2C(=O)OC)nnc1-c1ccoc1C", "Potency": "inconclusive: 1.58 µM [inhibitor, full curve, poor fit]"}, {"smiles": "CCOC(=O)c1c(-c2ccc(C)o2)csc1NC(=O)COC(=O)c1ccc(NC(N)=O)cc1", "Potency": "inconclusive: 35.5 µM [inhibitor, single point]"}, {"smiles": "O=C(Nc1csc([N+](=O)[O-])c1)Nc1c(Cl)cccc1Cl", "Potency": "inconclusive: 14.1 µM [inhibitor, partial curve, poor fit]"}, {"smiles": "Cc1ccc2cc(/C=N/NC(=O)CN3CCOCC3)c(Cl)nc2c1", "Potency": "inconclusive: 70.8 µM [inhibitor, partial curve, poor fit]"}, {"smiles": "COc1ccc(-c2cc(N)n(S(=O)(=O)c3c(F)c(F)c(F)c(F)c3F)n2)cc1OC", "Potency": "inconclusive: 15.8 µM [inhibitor, full curve, poor fit]"}, {"smiles": "O=C(CSc1nc(C2CC2)nc2c1cnn2-c1ccccc1)Nc1c[nH]c(=O)[nH]c1=O", "Potency": "inconclusive: 56.2 µM [inhibitor, partial curve, poor fit]"}, {"smiles": "COc1cc(/C=C2\\SC(=S)N(NC(=O)c3ccc(O)c(OC)c3)C2=O)ccc1O", "Potency": "active: 22.4 µM"}, {"smiles": "Cc1ccc(NC(=O)CCn2cnc3cc(C)c(C)cc32)cc1", "Potency": "inactive"}, {"smiles": "c1ccc(CSc2nnc3c(n2)OC(c2ccco2)Nc2ccccc2-3)cc1", "note": "(centres undefined)", "Potency": "inconclusive: 25.1 µM [inhibitor, partial curve, poor fit]"}, {"smiles": "COC(=O)c1cccc(Oc2cccc(C(F)(F)F)c2)n1", "Potency": "inconclusive: 79.4 µM [inhibitor, partial curve, poor fit]"}, {"smiles": "CCCN1CCC(N2CCN(c3cccc(C(F)(F)F)c3)CC2)CC1", "Potency": "inconclusive: 39.8 µM [inhibitor, partial curve, poor fit]"}, {"smiles": "O=C(COC(=O)COc1ccc(Nc2ccccc2)cc1)NCc1ccco1", "Potency": "inconclusive: 35.5 µM [inhibitor, single point]"}, {"smiles": "CCCn1c(=O)c2c(C(=O)OCC)cc(-c3ccco3)nc2n(CCC)c1=O", "Potency": "inactive"}, {"smiles": "O=S1(=O)C=C(SCCN2CCCCC2)c2ccccc21", "Potency": "inconclusive: 39.8 µM [inhibitor, partial curve, poor fit]"}, {"smiles": "Oc1ccc(Cl)cc1CNCC1CCCCC1", "Potency": "inconclusive: 11.2 µM [inhibitor, full curve, poor fit]"}, {"smiles": "O=c1[nH]sc2ccccc12", "Potency": "active: 25.1 µM"}, {"smiles": "C=CCC(NCc1ccccc1)c1ccc(C)o1", "note": "(centres undefined)", "Potency": "inconclusive: 39.8 µM [inhibitor, single point]"}, {"smiles": "COCCn1c(N)c(Sc2ccccc2[N+](=O)[O-])c(=O)[nH]c1=O", "Potency": "inactive"}, {"smiles": "CC(=O)N1CCc2cc(S(=O)(=O)CCC(=O)NCc3ccc4c(c3)OCO4)ccc21", "Potency": "inactive"}, {"smiles": "O=c1[nH]c2cc3c(cc2cc1CN(CCN1CCOCC1)C(=S)NCC1CCCO1)OCO3", "note": "(centres undefined)", "Potency": "inconclusive: 89.1 µM [inhibitor, single point]"}, {"smiles": "CC(=O)N1CCC(O)(c2cccc(C(F)(F)F)c2)CC1", "Potency": "inconclusive: 79.4 µM [inhibitor, partial curve]"}, {"smiles": "c1ccc(Cn2nnc3c(N4CCCCC4)ncnc32)cc1", "Potency": "inactive"}, {"smiles": "O=C(OCC(=O)N1CCc2ccccc21)c1ccccc1F", "Potency": "inconclusive: 100 µM [inhibitor, single point]"}, {"smiles": "CN1CCc2nc3sc(C(=O)Nc4cccc(C#N)c4)c(N)c3cc2C1", "Potency": "inconclusive: 50.1 µM [inhibitor, partial curve, poor fit]"}, {"smiles": "S=c1[nH]nc(-c2ccccn2)n1/N=C/c1ccco1", "Potency": "inconclusive: 20 µM [inhibitor, partial curve, poor fit]"}, {"smiles": "CC1=C(c2ccc(C)c(C)c2)S(=O)(=O)N=C1N1CCC(C(=O)Nc2cccc(F)c2)CC1", "Potency": "inconclusive: 89.1 µM [inhibitor, single point]"}, {"smiles": "CCN(CC(=O)Nc1c(C(=O)OC)[nH]c2ccc(Cl)cc12)c1ccc2c(c1)OCO2", "Potency": "inconclusive: 2.82 µM [inhibitor, full curve, poor fit]"}, {"smiles": "CCc1nnc(NC(=O)CN2CCN(Cc3cccc(OC)c3)CC2)s1", "Potency": "inconclusive: 20 µM [inhibitor, partial curve, poor fit]"}, {"smiles": "Cc1cc(C(F)F)n2nc(C(=O)Nc3ccc(F)cc3F)nc2n1", "Potency": "inconclusive: 79.4 µM [inhibitor, partial curve, poor fit]"}, {"smiles": "NCCCC[C@@H]1NC(=O)c2cc([N+](=O)[O-])cc(I)c2SC[C@@H](C(N)=O)NC(=O)[C@H](CCC(N)=O)NC1=O", "Potency": "inconclusive: 22.4 µM [inhibitor, partial curve, poor fit]"}, {"smiles": "COC(=O)Cc1c(C)c2ccc3c(c2oc1=O)CN(Cc1ccccc1OC)CO3", "Potency": "inactive"}, {"smiles": "Cc1ccc2nc(-c3ccc(O)c(O)c3)cn2c1", "Potency": "active: 50.1 µM"}, {"smiles": "Cc1ccc(O)c(NC(=O)c2ccc3c(c2)C(=O)N(Cc2cccnc2)C3=O)c1", "Potency": "inconclusive: 79.4 µM [inhibitor, partial curve, poor fit]"}, {"smiles": "O=S(=O)(Nc1cccc2nsnc12)c1ccccc1", "Potency": "inconclusive: 22.4 µM [inhibitor, full curve, poor fit]"}, {"smiles": "Cc1ccc2c(CC(=O)N(Cc3ccc(Cl)cc3)Cc3ccco3)coc2c1", "Potency": "inconclusive: 63.1 µM [inhibitor, partial curve, poor fit]"}, {"smiles": "COc1ccc(C(=O)C[n+]2ccc(Cl)c3ccc(Cl)cc32)cc1", "Potency": "inactive"}, {"smiles": "N#CNC(=Nc1cccc(C(F)(F)F)c1)SCc1ccc(C(=O)O)cc1", "Potency": "inconclusive: 15.8 µM [inhibitor, full curve, poor fit]"}, {"smiles": "CCCOc1ccc(C2c3c(-c4ccccc4O)n[nH]c3C(=O)N2CCCOCC)cc1OCC", "note": "(centres undefined)", "Potency": "inactive"}, {"smiles": "COc1ccc(-c2cc(C(=O)OC3CCOC3=O)c3ccccc3n2)cc1OC", "note": "(centres undefined)", "Potency": "inactive"}, {"smiles": "O=C1/C(=C/c2cccnc2)CCC/C1=C\\c1cccnc1", "Potency": "active: 44.7 µM"}, {"smiles": "Cc1cc2ccccc2n1CCNC(=O)c1ccc(S(=O)(=O)N2CCCCC2)cc1", "Potency": "inconclusive: 70.8 µM [inhibitor, single point]"}, {"smiles": "O=Cc1cc(N=Nc2cccc(C(=O)O)c2)ccc1O", "Potency": "inconclusive: 25.1 µM [inhibitor, full curve]"}, {"smiles": "COc1ccc2c(c1)C1OCCC1C(c1ccco1)N2", "note": "(centres undefined)", "Potency": "active: 79.4 µM"}, {"smiles": "NC(=S)NN=Cc1ccc(-c2ccc(S(=O)(=O)Nc3ncccn3)cc2)o1", "Potency": "inconclusive: 3.16 µM [inhibitor, full curve, poor fit]"}, {"smiles": "Cc1cccc(Cn2cc(S(=O)(=O)c3ccc(Cl)cc3)c(=O)c3cc4c(cc32)OCO4)c1", "Potency": "inactive"}, {"smiles": "O=C(CN(CC1CCCO1)C(=O)CNS(=O)(=O)c1ccc(F)cc1)NC1CCCC1", "note": "(centres undefined)", "Potency": "inconclusive: 89.1 µM [inhibitor, single point]"}, {"smiles": "NC(=O)c1c(NC(=O)C2c3ccccc3Oc3ccccc32)sc2c1CCCCC2", "Potency": "inconclusive: 20 µM [inhibitor, full curve, poor fit]"}, {"smiles": "Cc1cccc(OCC(=O)OCc2cc(=O)n3nc(-c4cccs4)sc3n2)c1", "Potency": "inconclusive: 89.1 µM [inhibitor, single point]"}, {"smiles": "O=C(Nc1ccc2oc(-c3ccncc3)nc2c1)c1ccccc1", "Potency": "inactive"}, {"smiles": "Cc1nc(C)c(-c2csc(Nc3cccnc3)n2)s1", "Potency": "inconclusive: 50.1 µM [inhibitor, partial curve, poor fit]"}, {"smiles": "COc1ccc(Nc2c(-c3ccc(C)o3)nc3ccc(Cl)cn23)cc1", "Potency": "inactive"}, {"smiles": "CCn1nc2cc(C(=O)NCC34CC5CC(CC(C5)C3)C4)ccc2c1OC", "Potency": "inconclusive: 2.82 µM [inhibitor, full curve, poor fit]"}, {"smiles": "Cc1cccc(NC2=NCC(=O)N2Cc2ccccc2)c1", "Potency": "inconclusive: 39.8 µM [inhibitor, partial curve, poor fit]"}, {"smiles": "COc1cc([N+](=O)[O-])cc(/C=N/NC(=O)Cn2cncn2)c1O", "Potency": "inconclusive: 39.8 µM [inhibitor, partial curve, poor fit]"}, {"smiles": "Cc1ccc(N2CC(C(=O)Nc3cccc(C(=O)NC4CC4)c3)CC2=O)cc1", "note": "(centres undefined)", "Potency": "inconclusive: 56.2 µM [inhibitor, partial curve, poor fit]"}]}]}
